PubChem BioAssay AID504764 – Drosophila RNAi Screening Center | 2011

- Screen: 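Knock-downs that raise or lower a Notch target reporter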 (primary screen)
- System: Drosophila Kc167 cells
- Reagent: long dsRNA against Drosophila genes
- Time to read-out: about 5 days (4 days dsRNA, then 24 h after transfection)
- Conditions: transfection of constitutively active membrane-tethered Notch lacking the extracellular domain, read 24 h later
- Read-out: 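Firefly luciferase from an E(spl)m3 reporter with active Notch, plus control-promoter and uninduced reporter wells for normalisation; unnormalised counts, duplicate wells a and b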
- Scale: induced reporter light, run 1, well a and induced reporter light, run 1, well b: higher = more light from the Notch target reporter with active Notch; control promoter light, run 1, well a and control promoter light, run 1, well b: higher = more light from the viral control promoter (cell number, transfection, viability); uninduced reporter light, run 1, well a: higher = more light from the Notch target reporter without active Notch
- Hit rule: 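Hit if the duplicate-averaged log2 ratio of induced to control-promoter light gives a plate-wise z beyond ±2, or induced to uninduced beyond ±1.8; weak-control or discordant-duplicate wells dropped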
- Meaning of the calls: active = modifier hit (raised or lowered Notch signal); inactive = not a hit
In all, the deposit lists about 22,000 reagents; below is a random part of those that have a named target and a result. Over the whole deposit, 403 (1.9%) got an active call. 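Unnormalised raw counts per well; ratio z-scores behind the hit calls and whether each hit raises or lowers signal are not deposited.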 Reagents against one gene are numbered here. No sequences are given here. Not stated in the record: the amount of reagent.

For LSm7 (GeneID 35003), how do the results read?
induced reporter light, run 1, well a: 1.29e5; induced reporter light, run 1, well b: 98610; control promoter light, run 1, well a: 1.15e5; control promoter light, run 1, well b: 1.43e5; uninduced reporter light, run 1, well a: 7390; activity call: inactive

Which result is listed for Dysb (GeneID 40052)?
induced reporter light, run 1, well a: 1.76e5; induced reporter light, run 1, well b: 1.74e5; control promoter light, run 1, well a: 2.12e5; control promoter light, run 1, well b: 1.91e5; uninduced reporter light, run 1, well a: 11660; activity call: inactive

How did the screen score robl22E (GeneID 33412)?
induced reporter light, run 1, well a: 1.07e5; induced reporter light, run 1, well b: 99660; control promoter light, run 1, well a: 1.05e5; control promoter light, run 1, well b: 50400; uninduced reporter light, run 1, well a: 9495; activity call: inactive

With CG13081 (GeneID 35245), what was measured?
induced reporter light, run 1, well a: 30915; induced reporter light, run 1, well b: 22255; control promoter light, run 1, well a: 32895; control promoter light, run 1, well b: 26660; uninduced reporter light, run 1, well a: 2255; activity call: inactive

Which result is listed for mei-P22 (GeneID 38797)?
induced reporter light, run 1, well a: 1.65e5; induced reporter light, run 1, well b: 1.63e5; control promoter light, run 1, well a: 2.60e5; control promoter light, run 1, well b: 1.76e5; uninduced reporter light, run 1, well a: 8240; activity call: inactive

What is on record for Sc2 (GeneID 38457)?
induced reporter light, run 1, well a: 1.27e5; induced reporter light, run 1, well b: 1.18e5; control promoter light, run 1, well a: 1.09e5; control promoter light, run 1, well b: 52405; uninduced reporter light, run 1, well a: 11625; activity call: inactive

How did the screen score CG17385 (GeneID 36603)?
induced reporter light, run 1, well a: 1.00e5; induced reporter light, run 1, well b: 96870; control promoter light, run 1, well a: 1.51e5; control promoter light, run 1, well b: 1.43e5; uninduced reporter light, run 1, well a: 11430; activity call: inactive

How did the screen score pio (GeneID 37929)?
induced reporter light, run 1, well a: 1.02e5; induced reporter light, run 1, well b: 94890; control promoter light, run 1, well a: 61330; control promoter light, run 1, well b: 81140; uninduced reporter light, run 1, well a: 5420; activity call: inactive

What is on record for Mkrn1 (GeneID 44131)?
induced reporter light, run 1, well a: 1.47e5; induced reporter light, run 1, well b: 1.41e5; control promoter light, run 1, well a: 1.73e5; control promoter light, run 1, well b: 1.30e5; uninduced reporter light, run 1, well a: 8685; activity call: inactive

What is on record for CR18166 (GeneID 8673968) #1?
induced reporter light, run 1, well a: 62445; induced reporter light, run 1, well b: 64700; control promoter light, run 1, well a: 80865; control promoter light, run 1, well b: 93030; uninduced reporter light, run 1, well a: 4538; activity call: inactive

Which result is listed for CR18166 (GeneID 8673968) #2?
induced reporter light, run 1, well a: 1.41e5; induced reporter light, run 1, well b: 1.43e5; control promoter light, run 1, well a: 2.54e5; control promoter light, run 1, well b: 3.14e5; uninduced reporter light, run 1, well a: 11730; activity call: inactive

With CG17930 (GeneID 41979), what does the deposit list?
induced reporter light, run 1, well a: 1.92e5; induced reporter light, run 1, well b: 2.06e5; control promoter light, run 1, well a: 2.21e5; control promoter light, run 1, well b: 2.53e5; uninduced reporter light, run 1, well a: 17850; activity call: inactive

Which result is listed for TwdlD (GeneID 43210)?
induced reporter light, run 1, well a: 1.70e5; induced reporter light, run 1, well b: 1.38e5; control promoter light, run 1, well a: 2.50e5; control promoter light, run 1, well b: 2.03e5; uninduced reporter light, run 1, well a: 14295; activity call: inactive

With CG17528 (GeneID 3355134), how do the results read?
induced reporter light, run 1, well a: 1.58e5; induced reporter light, run 1, well b: 1.75e5; control promoter light, run 1, well a: 2.62e5; control promoter light, run 1, well b: 2.69e5; uninduced reporter light, run 1, well a: 9955; activity call: inactive

What is on record for CG1575 (GeneID 31731)?
induced reporter light, run 1, well a: 1.97e5; induced reporter light, run 1, well b: 1.97e5; control promoter light, run 1, well a: 1.86e5; control promoter light, run 1, well b: 2.20e5; uninduced reporter light, run 1, well a: 15400; activity call: inactive

What did the screen give for lds (GeneID 45894)?
induced reporter light, run 1, well a: 1.04e5; induced reporter light, run 1, well b: 93855; control promoter light, run 1, well a: 65080; control promoter light, run 1, well b: 75730; uninduced reporter light, run 1, well a: 7695; activity call: inactive

With CG30485 (GeneID 246644), how do the results read?
induced reporter light, run 1, well a: 86190; induced reporter light, run 1, well b: 91430; control promoter light, run 1, well a: 1.19e5; control promoter light, run 1, well b: 1.19e5; uninduced reporter light, run 1, well a: 9715; activity call: inactive

What is on record for Qsox3 (GeneID 42582)?
induced reporter light, run 1, well a: 2.15e5; induced reporter light, run 1, well b: 1.67e5; control promoter light, run 1, well a: 1.96e5; control promoter light, run 1, well b: 1.89e5; uninduced reporter light, run 1, well a: 13800; activity call: inactive

Look-ups from above:
mei-P22 (GeneID 38797), control promoter light, run 1, well a = 2.60e5
Entry of CG17385 (GeneID 36603) under “induced reporter light, run 1, well b”: 96870
Entry of robl22E (GeneID 33412) under “activity call”: inactive
